{"source": "paper doi:10.1101/2025.10.10.681541", "target": "T1, E. coli cytochrome bd-I subunit CydX (E. coli) (UniProt P56100)", "T1 sequence": "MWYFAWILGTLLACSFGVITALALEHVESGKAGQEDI", "experiment": "cryo-EM structure", "note": "Results are given in words; binding and its absence hold for the method and conditions named. A result given as binding can be weak or reduced; the word gives no strength. Where a sequence is shown, tags or fusion partners need not be part of it."}
{"substance": "E. coli cytochrome bd-I subunit CydH", "values": [{"measurement": "binding", "result": "binds"}]}
